Binding data for 2 molecules are collected here from patent US20200123268A1 (UNIVERSIT DEGLI STUDI MAGNA GRAECIA CATANZARO, published 2020).

This experiment has as its target T1, human CD43, endogenous, on primary cells and cell lines that carry the UMG1 epitope (human) (UniProt P16150).
T1 sequence (chain, native glycosylation of the cell concerned): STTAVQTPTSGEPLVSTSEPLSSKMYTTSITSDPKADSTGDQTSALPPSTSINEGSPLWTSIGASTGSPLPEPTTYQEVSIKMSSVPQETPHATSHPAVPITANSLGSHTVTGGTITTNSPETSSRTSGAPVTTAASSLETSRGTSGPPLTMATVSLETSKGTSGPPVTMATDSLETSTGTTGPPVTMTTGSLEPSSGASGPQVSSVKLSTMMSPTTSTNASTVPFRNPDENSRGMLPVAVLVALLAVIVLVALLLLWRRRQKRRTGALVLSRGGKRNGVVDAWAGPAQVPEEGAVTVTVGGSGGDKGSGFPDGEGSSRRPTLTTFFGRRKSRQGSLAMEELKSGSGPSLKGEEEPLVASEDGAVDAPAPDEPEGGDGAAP
Kind of experiment: flow cytometry, antibody at 1 ug/ml, FITC mouse anti-human IgG secondary; histogram grid, cell line not labelled (HPB-ALL or H9). A general note: Flow cytometry measures light scatter and fluorescence of single cells or particles in a stream.

Results are given in words; binding and its absence hold for the method and conditions named. Some entries that bind do so weakly or less than the wild type.

B1: H1CL (antibody, V domains shown)
VH: EVQLVESGGGLVQPGGSLRLSCAASGFTFSSFGMHWVRQAPGKGLEWVSYISSGSGNFYYVDTVKGRFTISRDNAKNSLYLQMNSLRAEDTAVYYCARSTYYHGSRGAMDYWGQGTLVTVSS
VL: QIALTQSPAIMSASPGEKVTMTCSASSSVSSMYWYQLKPGSSPRLLIYDTSKMASGVPIRFSGSGSGTSFSLTVSRVEAEDAATYYCQQWSSYPPITFGAGSKLELK
Turning to B1, the binding result is “binds”.

B2: CHL1 (antibody, V domains shown)
VH: DVQLVESGGGLVQPGGSRKLSCVASGFTFSSFGMHWVRQAPEKGLEWVAYISSGSGNFYYVDTVKGRFTISRDNPKNTLFLQMTSLRSEDTAMYYCARSTYYHGSRGAMDYWGQGTSVTVSS
VL: EIVLTQSPATLSLSPGERATLSCSASSSVSSMYWYQQKPGLAPRLLIYDTSKMASGIPDRFSGSGSGTDFTLTISRLEPEDFAVYYCQQWSSYPPITFGQGTRLEIK
As for B2, the binding entry is given as “binds”.
